Experimental data reported in paper PMC5515856.

Target: T1, AtTT8-BD (AtTT8 bHLH protein fused to the GAL4 DNA-binding domain) (Arabidopsis thaliana) (UniProt Q9FT81)
T1 sequence: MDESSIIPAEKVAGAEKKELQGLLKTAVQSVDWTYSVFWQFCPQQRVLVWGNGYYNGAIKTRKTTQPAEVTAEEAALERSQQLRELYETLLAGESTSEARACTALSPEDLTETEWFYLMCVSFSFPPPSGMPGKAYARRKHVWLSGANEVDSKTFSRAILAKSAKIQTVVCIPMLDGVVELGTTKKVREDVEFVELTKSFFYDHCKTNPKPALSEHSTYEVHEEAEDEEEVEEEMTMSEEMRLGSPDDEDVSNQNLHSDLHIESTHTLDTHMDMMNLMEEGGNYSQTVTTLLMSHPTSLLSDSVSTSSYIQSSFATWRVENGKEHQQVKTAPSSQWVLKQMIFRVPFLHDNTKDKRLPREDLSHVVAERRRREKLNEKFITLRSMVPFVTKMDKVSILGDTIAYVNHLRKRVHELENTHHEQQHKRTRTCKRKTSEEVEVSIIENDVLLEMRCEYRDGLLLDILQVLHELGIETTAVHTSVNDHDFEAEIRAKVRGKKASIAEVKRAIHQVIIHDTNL
Assay: two-hybrid; GAL4 system in yeast AH109; prey in pGADT7 (AD), bait in pGBKT7 (BD); growth on SD/-Trp/-Leu, SD/-Trp/-Leu/-Ade/-His and quadruple dropout medium with X-Gal, photographed after 3-4 days

EsMYB9-AD (R2R3-MYB transcription factor EsMYB9 fused to the GAL4 activation domain) (Epimedium sagittatum)
binding: binds

Results are given in words; binding and its absence hold for the method and conditions named. A result given as binding can be weak or reduced; the word gives no strength. Where a sequence is shown, tags or fusion partners need not be part of it.
